Results are given in words; binding and its absence hold for the method and conditions named. For some assays here: Binding seen in cells or lysates may run through a third protein. Some binding calls cover weakened binding; strength is not graded here. Tags and fused reporters may be left off the sequences shown.
T1: ROS1 (full length) fused with split luciferase (Arabidopsis thaliana) (UniProt Q9SJQ6)
T1 sequence: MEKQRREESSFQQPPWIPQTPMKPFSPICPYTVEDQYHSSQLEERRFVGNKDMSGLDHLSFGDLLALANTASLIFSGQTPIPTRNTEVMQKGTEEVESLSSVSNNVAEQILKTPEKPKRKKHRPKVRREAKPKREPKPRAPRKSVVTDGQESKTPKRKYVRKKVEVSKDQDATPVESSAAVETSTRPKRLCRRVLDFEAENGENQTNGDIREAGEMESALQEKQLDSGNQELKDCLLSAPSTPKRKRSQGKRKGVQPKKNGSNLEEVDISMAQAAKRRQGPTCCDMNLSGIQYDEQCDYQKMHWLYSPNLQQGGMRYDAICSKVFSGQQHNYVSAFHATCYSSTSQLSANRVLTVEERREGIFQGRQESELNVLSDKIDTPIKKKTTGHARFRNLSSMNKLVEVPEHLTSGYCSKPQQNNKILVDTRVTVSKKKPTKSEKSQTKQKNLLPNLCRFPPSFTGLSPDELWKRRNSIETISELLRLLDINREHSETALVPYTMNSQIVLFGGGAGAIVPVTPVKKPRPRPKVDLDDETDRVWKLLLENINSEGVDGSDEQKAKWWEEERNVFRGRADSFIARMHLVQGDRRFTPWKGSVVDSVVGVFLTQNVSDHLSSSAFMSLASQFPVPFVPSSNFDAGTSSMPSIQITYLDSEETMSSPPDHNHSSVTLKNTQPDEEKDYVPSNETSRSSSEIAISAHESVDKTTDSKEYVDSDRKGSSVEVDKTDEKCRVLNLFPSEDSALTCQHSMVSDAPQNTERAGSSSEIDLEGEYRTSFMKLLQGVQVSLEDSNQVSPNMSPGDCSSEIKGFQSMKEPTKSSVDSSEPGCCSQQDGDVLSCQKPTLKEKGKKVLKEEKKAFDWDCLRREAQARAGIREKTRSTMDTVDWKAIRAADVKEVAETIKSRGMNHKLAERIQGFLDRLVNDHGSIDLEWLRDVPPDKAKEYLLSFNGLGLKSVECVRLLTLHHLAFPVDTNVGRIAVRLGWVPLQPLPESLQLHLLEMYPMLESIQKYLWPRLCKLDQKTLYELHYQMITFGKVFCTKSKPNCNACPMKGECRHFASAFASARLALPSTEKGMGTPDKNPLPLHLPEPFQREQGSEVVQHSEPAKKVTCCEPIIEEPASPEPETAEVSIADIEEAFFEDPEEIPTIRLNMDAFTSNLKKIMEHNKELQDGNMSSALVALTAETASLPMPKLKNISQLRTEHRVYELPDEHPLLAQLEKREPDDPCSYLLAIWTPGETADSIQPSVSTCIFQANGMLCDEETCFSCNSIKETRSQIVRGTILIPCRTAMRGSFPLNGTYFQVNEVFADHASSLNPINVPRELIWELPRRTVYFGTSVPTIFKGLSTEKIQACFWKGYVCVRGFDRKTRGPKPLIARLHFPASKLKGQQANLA

T2: AE7 fused with split luciferase (Arabidopsis thaliana) (UniProt Q9C9G6)
T2 sequence: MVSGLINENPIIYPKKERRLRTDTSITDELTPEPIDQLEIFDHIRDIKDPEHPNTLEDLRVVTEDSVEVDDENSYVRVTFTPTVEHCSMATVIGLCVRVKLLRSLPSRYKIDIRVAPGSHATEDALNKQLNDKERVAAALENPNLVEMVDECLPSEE

T3: AE7 in the BD vector (Arabidopsis thaliana) (UniProt Q9C9G6)
T3 sequence: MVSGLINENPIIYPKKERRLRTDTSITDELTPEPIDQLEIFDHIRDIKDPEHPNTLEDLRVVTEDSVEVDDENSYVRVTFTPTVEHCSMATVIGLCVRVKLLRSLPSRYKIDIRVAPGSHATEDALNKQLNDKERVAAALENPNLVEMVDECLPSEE

T4: ROS1 in the BD vector (Arabidopsis thaliana) (UniProt Q9SJQ6)
T4 sequence: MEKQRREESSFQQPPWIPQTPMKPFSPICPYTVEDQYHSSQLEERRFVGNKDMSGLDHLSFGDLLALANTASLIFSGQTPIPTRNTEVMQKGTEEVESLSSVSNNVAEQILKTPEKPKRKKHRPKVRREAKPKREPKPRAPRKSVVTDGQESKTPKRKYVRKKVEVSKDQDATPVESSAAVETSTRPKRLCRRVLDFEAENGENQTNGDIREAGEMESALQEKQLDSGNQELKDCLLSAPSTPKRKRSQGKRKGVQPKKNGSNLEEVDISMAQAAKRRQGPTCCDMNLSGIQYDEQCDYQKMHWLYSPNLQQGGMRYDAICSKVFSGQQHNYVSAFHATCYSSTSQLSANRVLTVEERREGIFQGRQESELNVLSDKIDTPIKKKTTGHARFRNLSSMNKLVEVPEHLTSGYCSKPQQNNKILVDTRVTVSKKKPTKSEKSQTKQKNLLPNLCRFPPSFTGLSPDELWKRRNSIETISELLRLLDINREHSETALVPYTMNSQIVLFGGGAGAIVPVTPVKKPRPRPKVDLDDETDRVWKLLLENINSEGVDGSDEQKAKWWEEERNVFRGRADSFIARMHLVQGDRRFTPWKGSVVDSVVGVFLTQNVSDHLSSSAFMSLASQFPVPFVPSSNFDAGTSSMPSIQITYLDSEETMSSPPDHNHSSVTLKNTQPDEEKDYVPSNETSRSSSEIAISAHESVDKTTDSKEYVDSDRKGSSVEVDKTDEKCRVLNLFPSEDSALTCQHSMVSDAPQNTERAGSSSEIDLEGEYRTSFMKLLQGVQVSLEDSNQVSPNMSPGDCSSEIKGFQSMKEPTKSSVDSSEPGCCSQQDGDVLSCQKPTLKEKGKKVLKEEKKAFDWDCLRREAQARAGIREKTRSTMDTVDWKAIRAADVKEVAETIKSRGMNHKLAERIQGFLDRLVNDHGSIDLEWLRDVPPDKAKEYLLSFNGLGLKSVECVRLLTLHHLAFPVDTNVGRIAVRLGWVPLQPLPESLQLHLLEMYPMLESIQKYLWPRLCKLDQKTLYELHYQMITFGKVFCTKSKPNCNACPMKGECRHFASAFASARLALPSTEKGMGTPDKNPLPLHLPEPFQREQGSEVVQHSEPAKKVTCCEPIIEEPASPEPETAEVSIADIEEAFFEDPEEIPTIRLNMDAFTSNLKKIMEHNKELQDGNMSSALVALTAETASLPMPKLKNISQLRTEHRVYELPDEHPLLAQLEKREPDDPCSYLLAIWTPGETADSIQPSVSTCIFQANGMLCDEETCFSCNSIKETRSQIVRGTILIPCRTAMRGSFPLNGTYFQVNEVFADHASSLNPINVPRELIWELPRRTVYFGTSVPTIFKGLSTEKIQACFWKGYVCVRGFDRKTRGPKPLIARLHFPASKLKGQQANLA


Experiments:
[1] = biological target: T1, ROS1 (full length) fused with split luciferase (Arabidopsis thaliana); test: split reporter; split luciferase in Nicotiana benthamiana (tobacco) leaves, 3 day-post-infiltration; empty vectors as negative control; CCD camera
[2] = biological target: T2, AE7 fused with split luciferase (Arabidopsis thaliana); test: split reporter; split luciferase, constructs co-transfected into Arabidopsis protoplasts, overnight incubation; empty vectors as negative control; CCD camera
[3] = biological target: T1, ROS1 (full length) fused with split luciferase (Arabidopsis thaliana); test: as above
[4] = biological target: T3, AE7 in the BD vector (Arabidopsis thaliana); test: two-hybrid; yeast two-hybrid, pDEST 22 (AD) and pDEST 32 (BD); growth on SD-L/T/H media
[5] = biological target: T4, ROS1 in the BD vector (Arabidopsis thaliana); test: as above

binding [1] | binding [2] | binding [3] | binding [4] | binding [5] | Binder
binds | binds | binds | – | – | MET18 fused with split luciferase (protein, UniProt Q0WVF8 1-1134) MMVEPNQLVQHLETFVDTNRSSSQQDDSLKAIASSLENDSLSITQLVREMEMYLTTTDNLVRARGILLLAEILDCLKAKPLNDTIVHTLVGFFSEKLADWRAMCGALVGCLALLKRKDVAGVVTDIDVQAMAKSMIQNVQVQALALHERKLAFELLECLLQQHSEAILTMGDLLVYAMCEAIDGEKDPQCLMIVFHLVELLAPLFPSPSGPLASDASDLFEVIGCYFPLHFTHTKDDEANIRREDLSRGLLLAISSTPFFEPYAIPLLLEKLSSSLPVAKVDSLKCLKDCALKYGVDRMKKHYGALWSALKDTFYSSTGTHLSFAIESLTSPGFEMNEIHRDAVSLLQRLVKQDISFLGFVVDDTRINTVFDTIYRYPQYKEMPDPSKLEVLVISQILSVSAKASVQSCNIIFEAIFFRLMNTLGIVEKTSTGDVVQNGNSTVSTRLYHGGLHLCIELLAASKDLILGFEECSPTSGCANSGCSMVKSFSVPLIQVFTSAVCRSNDDSVVDVYLGVKGLLTMGMFRGGSSPVSRTEFENILVTLTSIITAKSGKTVVWELALKALVCIGSFIDRYHESDKAMSYMSIVVDNLVSLACSSHCGLPYQMILEATSEVCSTGPKYVEKMVQGLEEAFCSSLSDFYVNGNFESIDNCSQLLKCLTNKLLPRVAEIDGLEQLLVHFAISMWKQIEFCGVFSCDFNGREFVEAAMTTMRQVVGIALVDSQNSIIQKAYSVVSSCTLPAMESIPLTFVALEGLQRDLSSRDELILSLFASVIIAASPSASIPDAKSLIHLLLVTLLKGYIPAAQALGSMVNKLGSGSGGTNTSRDCSLEEACAIIFHADFASGKKISSNGSAKIIVGSETTMSKICLGYCGSLDLQTRAITGLAWIGKGLLMRGNERVNEIALVLVECLKSNNCSGHALHPSAMKHAADAFSIIMSDSEVCLNRKFHAVIRPLYKQRCFSTIVPILESLIMNSQTSLSRTMLHVALAHVISNVPVTVILDNTKKLQPLILEGLSVLSLDSVEKETLFSLLLVLSGTLTDTKGQQSASDNAHIIIECLIKLTSYPHLMVVRETSIQCLVALLELPHRRIYPFRREVLQAIEKSLDDPKRKVREEAIRCRQAWASITSGSNIF
– | – | – | binds | binds | MET18 in the AD vector (protein, UniProt Q0WVF8 1-1134) MMVEPNQLVQHLETFVDTNRSSSQQDDSLKAIASSLENDSLSITQLVREMEMYLTTTDNLVRARGILLLAEILDCLKAKPLNDTIVHTLVGFFSEKLADWRAMCGALVGCLALLKRKDVAGVVTDIDVQAMAKSMIQNVQVQALALHERKLAFELLECLLQQHSEAILTMGDLLVYAMCEAIDGEKDPQCLMIVFHLVELLAPLFPSPSGPLASDASDLFEVIGCYFPLHFTHTKDDEANIRREDLSRGLLLAISSTPFFEPYAIPLLLEKLSSSLPVAKVDSLKCLKDCALKYGVDRMKKHYGALWSALKDTFYSSTGTHLSFAIESLTSPGFEMNEIHRDAVSLLQRLVKQDISFLGFVVDDTRINTVFDTIYRYPQYKEMPDPSKLEVLVISQILSVSAKASVQSCNIIFEAIFFRLMNTLGIVEKTSTGDVVQNGNSTVSTRLYHGGLHLCIELLAASKDLILGFEECSPTSGCANSGCSMVKSFSVPLIQVFTSAVCRSNDDSVVDVYLGVKGLLTMGMFRGGSSPVSRTEFENILVTLTSIITAKSGKTVVWELALKALVCIGSFIDRYHESDKAMSYMSIVVDNLVSLACSSHCGLPYQMILEATSEVCSTGPKYVEKMVQGLEEAFCSSLSDFYVNGNFESIDNCSQLLKCLTNKLLPRVAEIDGLEQLLVHFAISMWKQIEFCGVFSCDFNGREFVEAAMTTMRQVVGIALVDSQNSIIQKAYSVVSSCTLPAMESIPLTFVALEGLQRDLSSRDELILSLFASVIIAASPSASIPDAKSLIHLLLVTLLKGYIPAAQALGSMVNKLGSGSGGTNTSRDCSLEEACAIIFHADFASGKKISSNGSAKIIVGSETTMSKICLGYCGSLDLQTRAITGLAWIGKGLLMRGNERVNEIALVLVECLKSNNCSGHALHPSAMKHAADAFSIIMSDSEVCLNRKFHAVIRPLYKQRCFSTIVPILESLIMNSQTSLSRTMLHVALAHVISNVPVTVILDNTKKLQPLILEGLSVLSLDSVEKETLFSLLLVLSGTLTDTKGQQSASDNAHIIIECLIKLTSYPHLMVVRETSIQCLVALLELPHRRIYPFRREVLQAIEKSLDDPKRKVREEAIRCRQAWASITSGSNIF

Source: paper PMC4619598
